Test results reported in US20250367157A1, “COMPOSITION FOR USE IN THE TREATMENT OF DISEASES ASSOCIATED WITH DYSFUNCTION OF MITOCHONDRIAE” (IUF LEIBNIZ-INSTITUT FÜR UMWELTMEDIZINISCHE FORSCHUNG GMBH, priority 2022, published 2025).
At least one compound was matched to its structure with a doubt left.

System: primary XPA-deficient human fibroblasts
Assay: RNA isolation and real-time PCR, XPA fibroblasts
Format: cell-based
Conditions: 24 hours after UVB; Choline 100 mM, Butyrate 5 mM, alone or combined; FIG. 10
Description: 200 ng of purified RNA were used for cDNA synthesis using SuperScript reverse transcriptase (Thermo Fisher). Expression levels of the genes PKM1, PKM2, MT-ATP6, MT-ATP8, MT-ND1, MT-ND3, TFAM, SOD2, AKR1B1, HSPA2 and TFPI2 were analyzed using a CFX Connect Real-Time PCR detection system and SYBR Green Supermix (both from Bio-Rad). Expression levels of the genes mentioned above were normalized in comparison to the housekeeper genes 18S (for experiments with XPA-deficient fibroblasts) or β2-microglobulin (for experiments with CSB-deficient fibroblasts).
200 ng of purified RNA were used for cDNA synthesis using SuperScript reverse transcriptase (Thermo Fisher). Expression levels of selected genes were analyzed using a CFX Connect Real-Time PCR detection system and SYBR Green Supermix (both from Bio-Rad). Expression levels of the selected genes were normalized in comparison to the housekeeper gene 18S.

Structure (SMILES): CCCC(=O)O [Butyrate]
- RNA level of AKR1B1: only little effect on the RNA levels of AKR1B1
